No constants are given. Whether binding was seen depends on the method and setting. Some binding calls cover weakened binding; strength is not graded here. Sequences can lack the tags named with a protein.

The results in this text go back to patent publication US20210115146A1.

This test deals with Macaca fascicularis EGFR (cell surface) (Macaca fascicularis). As to the kind of experiment: FACS, FITC anti-human IgG. For orientation: In flow cytometry, cells or beads pass a laser one at a time.

B1: W5626-2C2-z22 (humanized VHH of W5626-2C2 further comprising a human Fc of IgG1 isotype) (Fc fusion, not shown: a dimerising Fc or GST)
chain: EVQLVESGGGLVQPGGSLRLSCAASGRTHSNYVMGWFRQAPGQEREFVAGISRTYGNTYYRDSVEGRFTISRDNSKNTLYLQMNSLRAEDTAVYYCAADPTRSEVILTTSHRYVYWGQGTLVTVSS
B1: the binding entry is on record as “binds”.

B2: W5626-2C10-z5 (humanized VHH of W5626-2C10 further comprising a human Fc of IgG1 isotype) (Fc fusion, not shown: a dimerising Fc or GST)
chain: AVQLVESGGGLVQPGGSLTLSCAASGRTFSSYAMGWFRQAPGKEREFVAADRWSGGNTRYADSVKGRFTISRDNAKNTLYLQMNSLRAEDTAVYYCAATYLSSDYEWGVPPKAYDYDYWGQGTLVTVSS
Consider B2, for which the binding result was “binds”.
